Laboratory results from patent US20230113802A1, “COMPOSITION AND METHOD TO PREPARE LONG-ACTING INJECTABLE SUSPENSION CONTAINING MULTIPLE CANCER DRUGS” (University of Washington, priority 2020, published 2023).
Some entries share one result that the patent states for a list of compounds.

Test: Association efficiency of venetoclax and zanubrutinib with DcNP's by dialysis
Format: physicochemical
Description: 85.4 mg DSPC, 33.6 mg DSPE-mPEG2000, 9.6 mg ABT-199, and 9.6 mg BGB-3111 were dissolved in 4 mL pre-warmed 70° C. tert-butyl alcohol. The solution was thoroughly mixed, lyophilized over 24 hrs, and reconstituted in 0.9% NaCl, 20 mM NaHCO3 buffer with trace TWEEN® 20. The resulting drug-combination, stabilized by lipid excipients and referred to as drug combination nanoparticle or DcNP's, were then filtered through an Acrodisc® CR syringe filter (0.2 μm PTFE Membrane, HPLC certified) and diluted with buffer solution to the desired concentration. Particle size was quantified using a NICOMP 380 ZLS (Zeta Potential/Particle Sizer). The extent of ABT-199 and BGB-3111 association with the DcNP particles in solution was analyzed via dialysis (6,000-8,000 molecular weight cutoff) under sink conditions; sink condition was achieved by dialyzing 200 μl of DcNP suspension against 200 mL buffer solution (1,000-fold volume change) for 4 hrs. The drug association efficiency (AE %) was determined by comparing the pre- and post-dialysis drug concentration ratios of each drug. Drug concentration was determined by the extraction drug in suspension and analyzed based on a LC-MS/MS assay as described below.
Following initial rehydration and without any sonication, particle size of the DcNP's with and without TWEEN20 was measured using the Zetasizer (FIG. 10). […]

SMILES	Percent association of drug to the platform
CC1(C)CCC(CN2CCN(c3ccc(C(=O)NS(=O)(=O)c4ccc(NCC5CCOCC5)c([N+](=O)[O-])c4)c(Oc4cnc5[nH]ccc5c4)c3)CC2)=C(c2ccc(Cl)cc2)C1 [Venetoclax, 4-[4-[[2-(4-chlorophenyl)-4,4-dimethylcyclohexen-1-yl]methyl]piperazin-1-yl]-N-[3-nitro-4-(oxan-4-ylmethylamino)phenyl]sulfonyl-2-(1H-pyrrolo[2,3-b]pyridin-5-yloxy)benzamide]	exceeded 90%
C=CC(=O)N1CCC([C@@H]2CCNc3c(C(N)=O)c(-c4ccc(Oc5ccccc5)cc4)nn32)CC1 [Zanubrutinib, (7S)-2-(4-phenoxyphenyl)-7-(1-prop-2-enoylpiperidin-4-yl)-4,5,6,7-tetrahydropyrazolo[1,5-a]pyrimidine-3-carboxamide]	exceeded 90%
